Laboratory results taken from PMC5496025, “Abstracts from the 10th C1-inhibitor deficiency workshop” (Allergy, Asthma, and Clinical Immunology : Official Journal …, 2017).
Results are given in words; binding and its absence hold for the method and conditions named. Some binding calls cover weakened binding; strength is not graded here.

The chains behind the UniProt entries cited, without tags or fusion partners. Residues count along the entry.
UniProt P03952, residues 20-638: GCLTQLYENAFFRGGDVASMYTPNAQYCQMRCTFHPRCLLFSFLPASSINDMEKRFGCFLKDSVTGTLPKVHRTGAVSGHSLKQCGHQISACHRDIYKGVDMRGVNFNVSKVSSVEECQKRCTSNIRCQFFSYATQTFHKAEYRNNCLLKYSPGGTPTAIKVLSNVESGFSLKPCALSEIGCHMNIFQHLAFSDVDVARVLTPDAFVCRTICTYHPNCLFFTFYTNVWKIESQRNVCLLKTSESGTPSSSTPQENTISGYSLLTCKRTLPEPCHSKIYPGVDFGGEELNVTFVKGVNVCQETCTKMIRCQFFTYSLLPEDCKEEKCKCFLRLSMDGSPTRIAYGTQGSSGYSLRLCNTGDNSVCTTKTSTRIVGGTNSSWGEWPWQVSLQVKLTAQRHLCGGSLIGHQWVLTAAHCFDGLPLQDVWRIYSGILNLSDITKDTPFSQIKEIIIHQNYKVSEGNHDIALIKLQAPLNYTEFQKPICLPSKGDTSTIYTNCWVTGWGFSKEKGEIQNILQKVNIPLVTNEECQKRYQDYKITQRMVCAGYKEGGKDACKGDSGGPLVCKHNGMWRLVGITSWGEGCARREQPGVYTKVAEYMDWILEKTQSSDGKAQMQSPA

T1: factor XIIa (UniProt P00748)
T1 sequence: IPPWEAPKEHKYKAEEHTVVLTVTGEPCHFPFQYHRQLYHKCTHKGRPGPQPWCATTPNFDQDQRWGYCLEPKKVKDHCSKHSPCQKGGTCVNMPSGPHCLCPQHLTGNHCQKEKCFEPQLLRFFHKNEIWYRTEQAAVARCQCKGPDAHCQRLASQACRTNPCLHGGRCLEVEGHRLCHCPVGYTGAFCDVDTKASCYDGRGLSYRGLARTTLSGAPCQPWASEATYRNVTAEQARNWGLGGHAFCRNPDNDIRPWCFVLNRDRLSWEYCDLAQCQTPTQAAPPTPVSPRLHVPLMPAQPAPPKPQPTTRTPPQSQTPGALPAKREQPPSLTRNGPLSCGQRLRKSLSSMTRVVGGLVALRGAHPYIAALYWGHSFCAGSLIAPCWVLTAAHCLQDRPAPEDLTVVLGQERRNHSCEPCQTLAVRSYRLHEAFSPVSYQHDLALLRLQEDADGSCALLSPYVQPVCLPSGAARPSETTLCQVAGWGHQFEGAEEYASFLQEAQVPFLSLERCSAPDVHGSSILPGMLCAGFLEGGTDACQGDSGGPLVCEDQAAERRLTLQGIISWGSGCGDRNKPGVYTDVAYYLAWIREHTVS

T2: commercial plasma-derived C1-INH, further purified by ion-exchange chromatography (UniProt P05155)
T2 sequence: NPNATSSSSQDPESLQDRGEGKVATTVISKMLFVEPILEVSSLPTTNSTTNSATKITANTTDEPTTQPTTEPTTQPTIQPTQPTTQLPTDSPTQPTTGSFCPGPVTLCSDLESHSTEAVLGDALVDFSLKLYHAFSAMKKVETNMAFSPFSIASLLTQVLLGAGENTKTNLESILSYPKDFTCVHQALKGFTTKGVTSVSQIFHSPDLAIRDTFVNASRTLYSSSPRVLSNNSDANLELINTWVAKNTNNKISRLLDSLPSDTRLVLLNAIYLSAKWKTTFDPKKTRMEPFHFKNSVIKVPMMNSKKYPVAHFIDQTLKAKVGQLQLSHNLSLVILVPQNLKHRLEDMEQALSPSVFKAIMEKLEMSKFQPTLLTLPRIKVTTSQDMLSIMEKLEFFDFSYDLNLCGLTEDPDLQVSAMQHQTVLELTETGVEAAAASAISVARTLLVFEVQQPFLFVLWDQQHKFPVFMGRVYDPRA


Legend:
factor XIIa = biological target: T1, factor XIIa; experiment: ELISA; factor XIIa or kallikrein as the C1 inhibitor ligand; plasma of 30 normal controls and 57 patients with type I/II HAE; only the target purified
plasma kallikrein = plasma kallikrein (UniProt P03952); experiment: as above
[1] = biological target: T2, commercial plasma-derived C1-INH, further purified by ion-exchange chromatography; experiment: SDS-PAGE of enzyme/C1-INH complexes; molar equivalent quantities of active enzymes and of C1-INH; both purified

Binder	binding (factor XIIa)	binding (plasma kallikrein)	binding [1]
commercial plasma-derived C1-INH, further purified by ion-exchange chromatography (natural protein, UniProt P05155 23-500, looked up, source: bought: commercial plasma-derived C1-INH, further purified by ion-exchange chromatography) NPNATSSSSQDPESLQDRGEGKVATTVISKMLFVEPILEVSSLPTTNSTTNSATKITANTTDEPTTQPTTEPTTQPTIQPTQPTTQLPTDSPTQPTTGSFCPGPVTLCSDLESHSTEAVLGDALVDFSLKLYHAFSAMKKVETNMAFSPFSIASLLTQVLLGAGENTKTNLESILSYPKDFTCVHQALKGFTTKGVTSVSQIFHSPDLAIRDTFVNASRTLYSSSPRVLSNNSDANLELINTWVAKNTNNKISRLLDSLPSDTRLVLLNAIYLSAKWKTTFDPKKTRMEPFHFKNSVIKVPMMNSKKYPVAHFIDQTLKAKVGQLQLSHNLSLVILVPQNLKHRLEDMEQALSPSVFKAIMEKLEMSKFQPTLLTLPRIKVTTSQDMLSIMEKLEFFDFSYDLNLCGLTEDPDLQVSAMQHQTVLELTETGVEAAAASAISVARTLLVFEVQQPFLFVLWDQQHKFPVFMGRVYDPRA	binds	binds	
commercially available active FXII (enzyme, UniProt P00748 20-615) IPPWEAPKEHKYKAEEHTVVLTVTGEPCHFPFQYHRQLYHKCTHKGRPGPQPWCATTPNFDQDQRWGYCLEPKKVKDHCSKHSPCQKGGTCVNMPSGPHCLCPQHLTGNHCQKEKCFEPQLLRFFHKNEIWYRTEQAAVARCQCKGPDAHCQRLASQACRTNPCLHGGRCLEVEGHRLCHCPVGYTGAFCDVDTKASCYDGRGLSYRGLARTTLSGAPCQPWASEATYRNVTAEQARNWGLGGHAFCRNPDNDIRPWCFVLNRDRLSWEYCDLAQCQTPTQAAPPTPVSPRLHVPLMPAQPAPPKPQPTTRTPPQSQTPGALPAKREQPPSLTRNGPLSCGQRLRKSLSSMTRVVGGLVALRGAHPYIAALYWGHSFCAGSLIAPCWVLTAAHCLQDRPAPEDLTVVLGQERRNHSCEPCQTLAVRSYRLHEAFSPVSYQHDLALLRLQEDADGSCALLSPYVQPVCLPSGAARPSETTLCQVAGWGHQFEGAEEYASFLQEAQVPFLSLERCSAPDVHGSSILPGMLCAGFLEGGTDACQGDSGGPLVCEDQAAERRLTLQGIISWGSGCGDRNKPGVYTDVAYYLAWIREHTVS			binds
active recombinant C1s (enzyme, UniProt P09871 16-688) EPTMYGEILSPNYPQAYPSEVEKSWDIEVPEGYGIHLYFTHLDIELSENCAYDSVQIISGDTEEGRLCGQRSSNNPHSPIVEEFQVPYNKLQVIFKSDFSNEERFTGFAAYYVATDINECTDFVDVPCSHFCNNFIGGYFCSCPPEYFLHDDMKNCGVNCSGDVFTALIGEIASPNYPKPYPENSRCEYQIRLEKGFQVVVTLRREDFDVEAADSAGNCLDSLVFVAGDRQFGPYCGHGFPGPLNIETKSNALDIIFQTDLTGQKKGWKLRYHGDPMPCPKEDTPNSVWEPAKAKYVFRDVVQITCLDGFEVVEGRVGATSFYSTCQSNGKWSNSKLKCQPVDCGIPESIENGKVEDPESTLFGSVIRYTCEEPYYYMENGGGGEYHCAGNGSWVNEVLGPELPKCVPVCGVPREPFEEKQRIIGGSDADIKNFPWQVFFDNPWAGGALINEYWVLTAAHVVEGNREPTMYVGSTSVQTSRLAKSKMLTPEHVFIHPGWKLLEVPEGRTNFDNDIALVRLKDPVKMGPTVSPICLPGTSSDYNLMDGDLGLISGWGRTEKRDRAVRLKAARLPVAPLRKCKEVKVEKPTADAEAYVFTPNMICAGGEKGMDSCKGDSGGAFAVQDPNDKTKFYAAGLVSWGPQCGTYGLYTRVKNYVDWIMKTMQENSTPRED			binds
active recombinant C1r (enzyme, UniProt P00736 18-705) SIPIPQKLFGEVTSPLFPKPYPNNFETTTVITVPTGYRVKLVFQQFDLEPSEGCFYDYVKISADKKSLGRFCGQLGSPLGNPPGKKEFMSQGNKMLLTFHTDFSNEENGTIMFYKGFLAYYQAVDLDECASRSKSGEEDPQPQCQHLCHNYVGGYFCSCRPGYELQEDTHSCQAECSSELYTEASGYISSLEYPRSYPPDLRCNYSIRVERGLTLHLKFLEPFDIDDHQQVHCPYDQLQIYANGKNIGEFCGKQRPPDLDTSSNAVDLLFFTDESGDSRGWKLRYTTEIIKCPQPKTLDEFTIIQNLQPQYQFRDYFIATCKQGYQLIEGNQVLHSFTAVCQDDGTWHRAMPRCKIKDCGQPRNLPNGDFRYTTTMGVNTYKARIQYYCHEPYYKMQTRAGSRESEQGVYTCTAQGIWKNEQKGEKIPRCLPVCGKPVNPVEQRQRIIGGQKAKMGNFPWQVFTNIHGRGGGALLGDRWILTAAHTLYPKEHEAQSNASLDVFLGHTNVEELMKLGNHPIRRVSVHPDYRQDESYNFEGDIALLELENSVTLGPNLLPICLPDNDTFYDLGLMGYVSGFGVMEEKIAHDLRFVRLPVANPQACENWLRGKNRMDVFSQNMFCAGHPSLKQDACQGDSGGVFAVRDPNTDRWVATGIVSWGIGCSRGYGFYTKVLNYVDWIKKEMEEED			binds
